Experimental data: PubChem BioAssay AID1347423 (Functional Genomics Laboratory (NCATS/FGL), 2020)
In all, about 52,000 sequences went through this assay and about 210 (0.4%) were called active.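 Rule for the calls: active = gene whose silencing raises cell survival under the drug, median off-target-corrected z-score across its silencing RNAs 2 or more; inactive = the rest.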 The list shows a part of the results.

assay: Resistance to Poly (ADP-Ribose) Polymerase inhibitor: Gene Identification via Genome-wide siRNA Screen; conditions: mouse BRCA2 R2336H ES cells, olaparib, CellTiter-Glo viability; active compounds read high
Outline: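 Genome-wide siRNA screen (3 siRNAs/gene, 20 nM) in mouse ES cells carrying hypomorphic BRCA2 R2336H; olaparib 500 nM added 48 h post-transfection, CellTiter-Glo viability 72 h later. Normalized to plate-median negative control; MAD z-scores, gene median, seed-adjusted.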

Sequence | z-score
CCCACGGAGGCAAUAAAUATT against Crygn | inactive: 0.243
GGCCUUACAACAAAAUCUGTT against Chd9 | inactive: 0.447
GGUACUGAGCUUGAUUGUATT against 4732482E20Rik | inactive: -1.42
GGUGUCCACGGUGGUUUGATT against Pfn1 | inactive: -1.41
CCGUGAAAAUCAGUAAUUATT against Cacybp | inactive: -0.903
UUGAAAUGCCUCGUUCUUUTT against Wfdc13l1 | inactive: -0.48
CGAAGUUUUGUUGAAAAGCTT against Rhobtb3 | inactive: -0.672
GGUCCCUGAGGAUUUCAUCTT against Tusc4 | inactive: -0.991
GGUGAAUAUACUGUAAUGATT against Gabra2 | inactive: -0.484
GGAGAACCUGAGCUAUGAUTT against Hsp105 | inactive: -1.42
GCACAUCGGCCUUAAGUCATT against Supt4h | inactive: -0.695
GCCGUUAUUGCAUUUGGACTT against 6330415F13Rik | inactive: -0.0926
CCAAUCUCUACCGUCUCCUTT against Camp | inactive: -0.0705
CCUACUUAGUCCAGUUUAATT against Olfr735 | inactive: -0.187
CCUCUUCAGCUUACAGUGGTT against Fjx1 | inactive: -0.588
GGGAAAAGAGAGUGGUGUATT against Rab27a | inactive: -0.7
GUGGUCUUUAGUGGUGCUCTT against Mata2 | inactive: 4.01
GCUUAUAGAUCAGAUAGGATT against Cd244 | inactive: 0.459
GGAAUCAGCUCUUUGAGCGTT against Capn5 | inactive: -1.05
GGCCUUAAUUUAGUUGGUATT against Fbxo2 | inactive: 0.189
GGUUAUUCAUUCAAAAUGGTT against 2810421I24Rik | inactive: 0.533
GGUUCUACAGAUGUUUUCUTT against Tnfrsf22 | inactive: -0.928
GGCAGCGCAAUGGAUUAGUTT against Chrng | active: 1.99
GGCUGUUACAACAAAGGAATT against 2700022J23Rik | inactive: -0.726
GCAUAGUGACCAUGGAUAATT against Olfr807 | inactive: -1.12
GGCAGUCAACAAAGAAGACTT against Metapl1 | inactive: -1.74

An excerpt of these results, with tabs:
Sequence	z-score
GGGAAAAGAGAGUGGUGUATT against Rab27a	inactive: -0.7
GUGGUCUUUAGUGGUGCUCTT against Mata2	inactive: 4.01
GCUUAUAGAUCAGAUAGGATT against Cd244	inactive: 0.459

(further entries)

Sequence | z-score
GCUGUGUACUCUGCCUUGUTT against Olfr338 | inactive: -0.374
GGAGACCUUCAGCUUGGAATT against Zfp260 | inactive: -2.48
GCUCCUAAGUAAAAUGGUATT against 2010109K11Rik | inactive: 0.301
GCGAUUCUUGAUAAAGAGGTT against 4933413G11Rik | inactive: 0.013
GGCUCUGUGCUUAAGAUGATT against D130038B21Rik | inactive: 0.743
GGGAUUUCAAAUAAUUUGCTT against Nudt4 | inactive: 1.24
GGCCUUGUGUUUAGAAAACTT against Piwil2 | inactive: 0.131
GGAAACACCGGAAAUAAUCTT against Akap12 | inactive: 1.72
GGAGAACUUCAGUGAGUCCTT against Ambp | inactive: 0.895
GGAGAGACUCAGGAGUUUUTT against Rohn | inactive: -0.479
CGGAUCUUAUCAGAACAUGTT against Zfml | inactive: -1.35
GGCCAACCAAGUCUUCUGATT against 2310031L18Rik | inactive: 1.43
GGUGUGGUCUAUGACACGUTT against Hdac5 | inactive: -0.538
GGAGUUGACGAAGAUAUGATT against 1110014D18Rik | inactive: 2.22
GCAUCCUAUAAUAUGCAUGTT against Pcdh21 | inactive: 0.192
CCAGUGUUCCCUACUACGUTT against 1810009M01Rik | inactive: 0.706
GGGAGUUCCAAUCAUUCUUTT against 2200002J24Rik | inactive: -0.178
CCUGGUCACUCCAAACCCATT against BC055757 | inactive: 0.651
GGCAGUGGAUGUACAAAAATT against Sh3bgrl2 | inactive: 0.0662
GGCUGACGAAUGACAGUUGTT against 3110023G01Rik | inactive: -1.63
GGAGUCAGGGCUGAUACAUTT against Lpin3 | inactive: -1.85
GGAACCUGAUUGACUUGGATT against 9330187M14Rik | inactive: -0.444
GGAAGAGAAGUAUUGAGGATT against Pdgfa | inactive: -0.725
CCUCAUCGUAAGAGACAUATT against Arhgef2 | inactive: 0.0141
CCAACAGAACAAUCUGCAUTT against Olfr672 | inactive: -1.34
GGUCAUUCAUAAGCUCCUGTT against Ncf1 | inactive: -0.641

Sequence | z-score
GGUAAAGAGGGAAGAGAUCTT against Akr1d1 | inactive: 0.819
GGAAUUUUUUUCUUCGAUCTT against Sema3a | inactive: -0.0189
GCACCCUACCUGCUAAUGUTT against 3200001I04Rik | inactive: -2.38
GGGAAUGAAUGCUUUACAUTT against Aspn | inactive: -0.599
GGAGCUGUCCCAAGAAAUCTT against 1110055N21Rik | inactive: 0.0557
CCUCAUUAGCAACCAAAAGTT against Spnb4 | inactive: -1.32
GGCCAUGGUUAAACCAUAUTT against Pdcl2 | inactive: 2.94
GGCUAUCUUUUCAGCUUUATT against Sox30 | inactive: -0.0211
GGGACUUGCCAGAAGAUGCTT against 4921504I05Rik | inactive: 0.643
CCAACCCUCCAUCAAAGAATT against 2610207P08Rik | inactive: 0.689
GCCUUGGACUACUUUACACTT against 1810061M12Rik | inactive: 1.01
GGAGCAGACAUCAGAAAGCTT against Nalp5 | inactive: -1.95
GCCAAGUGAUUGAAAAAACTT against Lnp | inactive: -0.698
ACUUCACGAUGGAAAAAUUTT against 1700049E17Rik | inactive: -2.16
GGCAUCAUAAAGCCAGGCATT against 5730410E15Rik | inactive: 0.097
GCAGCAUGUGAAAAGAAGGTT against 2010003K11Rik | inactive: -1.41
GGCACUUUAGUCUUUUCUCTT against Zfp296 | inactive: -0.539
GGCCAAUCAAGAGUAGUAUTT against Fgb | inactive: 0.812
GGAGUUUGUUGGAGCCAUUTT against 9030205A07 | inactive: -1.88
GGGACGAAUUCAGCAAUUUTT against Pcdha6 | inactive: -0.00782
GGACUUGUCCAGCAUUGUATT against Donson | inactive: -1.45
GGUGUUGUGAAGUGUCAAATT against 2900024C23Rik | inactive: -1.23
CCAAUUCUCGAAUCAUUGCTT against Olfr561 | inactive: -0.382
GGCUGAAAAAUUUCAUGAUTT against 1110013G13Rik | inactive: 0.146
GGCUAUUUGAGAACAGGCATT against Cxcl13 | inactive: -0.0052
GGCCAAUAAAGACUGGUUUTT against Rps15 | inactive: -2.32

Sequence | z-score
UAACUGGGCUCACGUUGACTT against Pou2f1 | inactive: -0.778
GGACGUGACAGACAUUAUUTT against Htr5b | inactive: -0.897
GGAGAAAGAAAGCAGUUUUTT against 2310067E19Rik | inactive: 0.223
ACUGGGUUCUUAGUUGUAUTT against Olfr811 | inactive: -0.381
GGGUUUUGUCAAUCAAAUATT against 1500031M22Rik | inactive: -0.348
GGGAGAAGAAAUGGUUUAATT against B230315M08Rik | active: 1.54
GGCUUUUCAGACCAAGCUUTT against 3830406C13Rik | inactive: 0.18
UGGUCACCUUUCUCUUAUUTT against Tas2r137 | inactive: -0.39
GGUUGACUUUGUAACUCAATT against 2610037M15Rik | inactive: -0.665
GGCUGAAAGUGAAGAAACGTT against Srp68 | inactive: -2.51
CCACCAGAUACAGGAUCUATT against 6430517E21Rik | inactive: -1.81
GGAGAGAUAUCUUUGGUGGTT against Slc27a4 | inactive: -0.0625
GGUGGUGAGAUAGAGAAAUTT against C1qg | inactive: -2.11
GGGUAUACGGCAUUUCCUATT against Rad9b | inactive: -0.255
GACAUUGUCUGAUUUUGGATT against V1rg9 | inactive: 0.139
GGAGGAAGUGAACAAAAUGTT against Afp | inactive: -0.134
GGUGAAAGUGAGAAGGAAGTT against 6720460F02Rik | inactive: -0.247
CGUGUCAUACAGGUGUGGUTT against Lhx8 | inactive: 0.00267
CGGCAACUUUCUGAACAUCTT against Nfix | inactive: -0.427
CCGCUUUAAGGCACAUCCATT against 4933400K24Rik | inactive: 1.09
GGUGCUUCUGGAAAAGUUGTT against 3732409C05Rik | inactive: -0.891
GGUACAGAGAUCUAAGACUTT against Opn4 | inactive: -1.06
CUGAAUCAGAUAAAGAGUUTT against Hist2h2aa1 | inactive: -1.1
GGAGGUAUUUACCAAAGAUTT against CRG-L1 | inactive: -0.876
